No constants are given. Whether binding was seen depends on the method and setting. Binding calls can cover weak binding; strength is not graded here. For some assays here: Where a sequence is shown, tags or fusion partners need not be part of it.
Tests used:
[1] = biological target: EIF4G5, yeast two-hybrid fusion (Trypanosoma brucei) (UniProt Q57VY5); assay: two-hybrid
[2] = biological target: T1, MKT1, yeast two-hybrid fusion (Trypanosoma brucei) (UniProt Q587E3); assay: two-hybrid
T1 sequence: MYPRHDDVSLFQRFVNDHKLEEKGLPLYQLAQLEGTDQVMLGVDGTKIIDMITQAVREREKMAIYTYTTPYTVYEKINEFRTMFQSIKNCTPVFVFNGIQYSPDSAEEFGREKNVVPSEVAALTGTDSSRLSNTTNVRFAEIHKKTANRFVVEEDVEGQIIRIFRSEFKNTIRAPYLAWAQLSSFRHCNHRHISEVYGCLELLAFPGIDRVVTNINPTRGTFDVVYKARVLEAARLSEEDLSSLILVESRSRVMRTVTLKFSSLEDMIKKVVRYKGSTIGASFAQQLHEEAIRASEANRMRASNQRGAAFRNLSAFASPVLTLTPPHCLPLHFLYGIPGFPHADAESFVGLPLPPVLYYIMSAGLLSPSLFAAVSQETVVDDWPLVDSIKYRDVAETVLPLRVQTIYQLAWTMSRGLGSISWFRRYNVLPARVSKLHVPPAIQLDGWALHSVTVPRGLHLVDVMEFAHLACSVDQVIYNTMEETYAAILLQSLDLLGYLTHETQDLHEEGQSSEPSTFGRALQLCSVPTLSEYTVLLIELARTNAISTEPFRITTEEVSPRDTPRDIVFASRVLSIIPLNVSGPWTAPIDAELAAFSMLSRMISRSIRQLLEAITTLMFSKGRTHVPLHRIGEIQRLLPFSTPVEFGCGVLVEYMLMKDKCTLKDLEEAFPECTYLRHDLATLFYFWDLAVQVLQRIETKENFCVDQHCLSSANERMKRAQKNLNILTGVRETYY

In the case of “EIF4E6, yeast two-hybrid fusion (from UniProt Q57V43)”, the binding [1] is reported as “binds”.
“EIF4G5, yeast two-hybrid fusion (from UniProt Q57VY5)” was tested, and the binding [2] was “binds”.
